These are yes or no findings as the source states them, for the method shown. Some binding calls cover weakened binding; strength is not graded here. Where a sequence is shown, tags or fusion partners need not be part of it.
Target: T1, IL-15 receptor on murine CTLL-2 cells (mouse) (UniProt Q60819+P16297+P34902)
T1 sequence (looked up) 1: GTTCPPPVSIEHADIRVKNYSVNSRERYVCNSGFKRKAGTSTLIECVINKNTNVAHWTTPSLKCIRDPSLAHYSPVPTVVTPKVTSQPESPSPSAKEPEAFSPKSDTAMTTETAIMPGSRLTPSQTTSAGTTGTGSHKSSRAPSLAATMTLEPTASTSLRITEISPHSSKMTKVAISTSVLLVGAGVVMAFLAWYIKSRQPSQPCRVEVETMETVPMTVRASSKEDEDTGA
T1 sequence (looked up) 2: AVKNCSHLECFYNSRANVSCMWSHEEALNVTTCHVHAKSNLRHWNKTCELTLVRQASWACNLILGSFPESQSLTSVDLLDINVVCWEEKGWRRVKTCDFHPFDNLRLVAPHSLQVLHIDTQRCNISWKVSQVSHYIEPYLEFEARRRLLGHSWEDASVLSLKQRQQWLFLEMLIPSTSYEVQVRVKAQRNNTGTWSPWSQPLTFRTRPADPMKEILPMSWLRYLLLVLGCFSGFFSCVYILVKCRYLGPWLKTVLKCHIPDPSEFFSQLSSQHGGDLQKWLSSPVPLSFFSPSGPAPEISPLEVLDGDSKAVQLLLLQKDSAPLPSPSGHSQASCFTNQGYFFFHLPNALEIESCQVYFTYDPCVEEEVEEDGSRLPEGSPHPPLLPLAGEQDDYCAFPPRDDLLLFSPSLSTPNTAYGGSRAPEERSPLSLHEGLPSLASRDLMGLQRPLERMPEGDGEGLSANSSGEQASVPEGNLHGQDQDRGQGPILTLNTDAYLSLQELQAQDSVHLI
T1 sequence (looked up) 3: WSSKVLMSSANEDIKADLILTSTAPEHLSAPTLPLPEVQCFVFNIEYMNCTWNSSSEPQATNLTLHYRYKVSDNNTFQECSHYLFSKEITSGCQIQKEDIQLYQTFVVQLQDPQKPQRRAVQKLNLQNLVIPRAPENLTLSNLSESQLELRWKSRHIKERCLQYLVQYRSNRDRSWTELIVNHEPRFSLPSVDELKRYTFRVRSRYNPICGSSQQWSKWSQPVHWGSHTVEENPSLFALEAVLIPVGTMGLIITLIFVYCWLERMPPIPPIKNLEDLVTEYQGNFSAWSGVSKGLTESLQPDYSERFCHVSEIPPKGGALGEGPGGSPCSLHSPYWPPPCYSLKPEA
Experiment: flow cytometry of FITC-conjugated protein on CTLL-2 cells

binding: binds
B1: Fusion polypeptide SEQ ID NO: 28 (modified IL-15), FITC conjugated (ligand)
chain: MNWVNVISDLKKIEDLIQSMHIDATLYTESDVHPSCKVTAMKCFLLELQVISLESGDASIHDTVENLIILANNSLSSGNVTESGCKECEELEEKNIKEFLQSFVHIVQMFINTSGSGSRGKSLTSKVPPTVQKPTTVNVPTTEVSPTSQKTTTHHHHHHC
modifications: labelled with fluorescein isothiocyanate (FITC); labelled residues not stated
